# Source: paper PMC12370185
# This is one part of the list.
# What was measured:
# Experiment in all cases: EMSA with sequencing
# Conditions in all cases: 10 mM Tris-Cl pH 7.5, 50 mM NaCl, 1 mM DTT, 0.25 mg/ml BSA, 2 mM MgCl2, 0.025% Nonidet P-40, 5% glycerol; 28 nM nucleosome library; 10 min on ice then 30 min …; high values mean tight binding; double strand, one strand shown
# KLF4 + histone octamer = system: KLF4 + histone octamer
# OCT4 + histone octamer = system: OCT4 + histone octamer
# SOX2 + histone octamer = system: SOX2 + histone octamer
# [1] = system: c-MYC + MAX + histone octamer
Sequence,binding signal (log2 relative supershift) (KLF4 + histone octamer),binding signal (log2 relative supershift) (OCT4 + histone octamer),binding signal (log2 relative supershift) (SOX2 + histone octamer),binding signal (log2 relative supershift) [1]
GATGGACCCTATACGCGGCCTTATTCCAGCTGTCATTATTTTAGAGGACTACACATTAACATCTCAGTGATCTAGAACAAATGGAGCAATGTGAGAAACTGTGCTGTATCTTGATCAGTAGTTACCCAACCCAGTGAGTCTGAAAACAACAGATTGCTATCCCTCCCACGTGAGATTCTGATGCAATTGGTCTGTGACAGAGACCAGGAATGCCAGTCGGATAGTGTTCC,1.12,0.373,0.563,0.225
GATGGACCCTATACGCGGCAGATAAGGAAACTTGCACAGAGGGCTTGCCTAAACATGCCCACAGCTGACTAAGGGCTCACATGTGCACTAGGGGAATGGGGTGGAGCCACAAGAAATTCACACCTTATACAAATAGGGAATCCAGCCCCATTAGCATATATATTCATGCTGCTGATAAAGACATACCCAAGACTGGGAAGCAAAATAGGTTGCCAGTCGGATAGTGTTCC,1.86,0.751,0.801,0.408
GATGGACCCTATACGCGGCGTCCCTACAATGGGCAGGGCTCTGTGTTGGTTTTTCATCCCATTTTGGCAATGAATAGGTACTGAAGACTCTCCCGGAACAGACTGCATCAAATGGTGATTGTTATACACTCAAGTGGATTCCTTCCTTCCTTTATCATGCAATCAGTGCAGATTCTCAGTTCATATCTGTCCCTGGAGTCTTACTCCACCTGCCAGTCGGATAGTGTTCC,2.67,0.115,1.2,0.397
GATGGACCCTATACGCGGCTATTATCCGTTCATTATTGTCATGTTCTTCCTTAAAAGAAGGTGGGGCATCTGCTTGTTGGATTCAGGCAGAGCATGATTTTTAATATGTATATTCTTGGTCTTAAGCCACGAAAGTGTTGTAAATCACCAGCAAACAGCACTAAGTATTATCGTCCTCTAGGCACTGAAAATTTGAAATGAGCTGCTGACTGCCAGTCGGATAGTGTTCC,0.922,0.192,1.45,0.155
GATGGACCCTATACGCGGCCCTCTTTTACTTCATATAAACTTTCAATTGAAGTGTACATACCAAAAAGCACACAAATCTAATATACAGTTCAATGGAATGACACACAGTGAACACACTTGCATAACCAGGGCCCCAGCTCGAGGAACTGAACATTAGCAGCATCCCAGAAGGCCCCCTGTGCTCCCTTCCAGTCACTAACAACTGCCCTATGCCAGTCGGATAGTGTTCC,1.58,0.223,0.993,0.178
GATGGACCCTATACGCGGCTTCTGAAATTCTTCTTCTGAAAGTTGGGTGTGCCTTGTGCGGTGCATGTGCATATGTGTAGGTACATTATGCACGTGGGTGTGTGTGGGTGTGGCATACTGTTCTCCTGAAGGCACACTTTCTACACTGTTCAGGGGAGGGGAATGATAAAGCCACTTTTTCTCAAGGCAGATGGTATGAAATCCATATTCTGCCAGTCGGATAGTGTTCC,2.17,0.231,0.155,0.341
GATGGACCCTATACGCGGCCTGTCCTGCCAATGAGAATATGATAAAAAGGTTCTTGAATGCTGCTGTAGTCAGTATACTTGGGGTCATGGAAGGCTGCTGACCTCATACATGGGGACTCTTGCAGAGAAGAGATGGAGTGGCTTGACAGGACTTGCCCGGTTTCTAGAACTCACTGTCTCTCTGTCTCTCTCTCTCTCTTTTTTTTTTTTTGCCAGTCGGATAGTGTTCC,0.693,0.724,0.897,0.137
GATGGACCCTATACGCGGCCCCTGCCCATCCCTAACCTCTGGCAACCACTCATCTGTCTATTCCCCCATTGTTAGGATTTTGTCAATTCAAGAATGTTATGTAAATGGAGCCACCCAGTATGCACCCTTTTTGCATTGACTTTATCCCCTCAGCATGATTCTCTGGAGGTGCATCCGCATTGTGGTGCTGATAGTGACTACTGAGTAGTATGCCAGTCGGATAGTGTTCC,2.27,0.352,1.4,0.995
GATGGACCCTATACGCGGCCCCCTTTCCTGAGAATAGTTTATTACCATGTCCTATTGGTTCTGCCTATCAATGATGTCTCTTGAATCTTTACCCCATCTCTACTACCACCGTGCTAGTCCAAGCCACCATCACTTTCTGCTTGGGATAGCGTGATTGTGAACTGGTCCATACTTGTCTACTCTAGCCTACAGTTCTAATCTCCTCCCTTCTGCCAGTCGGATAGTGTTCC,2.22,0.0263,0.256,0.143
GATGGACCCTATACGCGGCTACACAGGATGTTACTATTACTTAACCTTGGGCAGAGGGAGAACTGCACACCCACACCCCTGTTAAGTTCCTTTTAGCAAACACCAGCCCCCACTGCCTGAAACTCATCTTGGTCATGCCCAGACATGATGCTACAGACCTTCAGAGAAAGAGGAAGCCAAATATTTAGCTCTCTCTGCGGTCCCTGGCTCTGCCAGTCGGATAGTGTTCC,1.95,0.277,0.447,0.332
